# According to patent US7893021B2, “Parathyroid hormone antagonists and uses thereof” (Scantibodies Laboratory, Inc., priority 1999, dated 2011):
# Where two headings read alike, the source gives them in different places.
# B1: hPTH 7-84: Synthetic human PTH 7-84 fragment, an exemplary PTH antagonist, obtained from Bachem (peptide)
# peptide: LMHNLGKHLNSMERVEWLRKKLQDVHNFVALGAPLAPRDAGSQRPRKKEDNVLVESHEKSLGEANKADVNVLTKAKSQ
# B2: hPTH 1-84: Synthetic human PTH 1-84, the whole 84 amino acid parathyroid hormone (SEQ ID NO:1), PTH agonist, purchased from Bachem (peptide)
# chain: SVSEIQLMHNLGKHLNSMERVEWLRKKLQDVHNFVALGAPLAPRDAGSQRPRKKEDNVLVESHEKSLGEANKADVNVLTKAKSQ
# Experiments:
# [1] = tested on: antibodies recognizing the 39-84 region and the first six amino acids (1 to 6) of the human PTH molecule; experiment: Whole PTH IRMA assay, recognition of PTH peptides; design: species or system goat; conditions: concentrations as high as 10,000 pg/mL
# Excerpt: (§1) This new Whole PTH two-site assay (Scantibodies Laboratories, Santee, Calif., USA) first employees and antibody that recognizes the 39-84 region of the PTH molecule. This antibody, produced in a goat and affinity purified, is present in relative excess and is immobilized onto polystyrene-coated tubes. The second antibody, also developed in a goat, was also affinity purified and recognizes only the first six amino acids (1 to 6; Ser-Val-Ser-Glu-Ile-Gln) of the human PTH molecule (FIG. 1). This anti-hPTH assay uses synthetic human PTH 1-84 as the standard, with a limit of detection of approximately 1 to 2 pg/mL. Normal values range from 5 to 35 pg/mL. […] The Whole PTH assay was compared with the Intact PTH assay purchases from the Nichols Institute (I-Nichols, San Jan Capistrano, Calif., USA). Synthetic human PTH 1-84 and 7-84 were purchased from Bachem (Torrance, Calif. USA). To assess circulating levels of hPTH 1-84 and non-(1-84) PTH, heparinized blood samples were obtained before dialysis from 28 patients who had been maintained on chronic hemodialysis for 1.2 to 7.5 years and from 14 renal transplant patients (1 to 6 years).
# [2] = Nichols Intact (I-Nichols) PTH assay, recognition of PTH peptides
# Excerpt: as §1
Molecule,detection by the Whole PTH assay [1],discrimination from hPTH 1-84 by the Nichols intact PTH assay [2],discrimination from hPTH 1-84 by the Nichols intact PTH assay ([2]; listed as 7-84)
B1,undetectable,does not differentiate,did not discriminate
B2,detected with a high degree of sensitivity,–,–
